Experimental findings from patent US12077555B2, “STAT degraders and uses thereof” (Kymera Therapeutics, Inc., priority 2019, dated 2024) are described below.

By UniProt entry, the sequences of proteins in these tests, tags left out.
UniProt P40763, whole entry: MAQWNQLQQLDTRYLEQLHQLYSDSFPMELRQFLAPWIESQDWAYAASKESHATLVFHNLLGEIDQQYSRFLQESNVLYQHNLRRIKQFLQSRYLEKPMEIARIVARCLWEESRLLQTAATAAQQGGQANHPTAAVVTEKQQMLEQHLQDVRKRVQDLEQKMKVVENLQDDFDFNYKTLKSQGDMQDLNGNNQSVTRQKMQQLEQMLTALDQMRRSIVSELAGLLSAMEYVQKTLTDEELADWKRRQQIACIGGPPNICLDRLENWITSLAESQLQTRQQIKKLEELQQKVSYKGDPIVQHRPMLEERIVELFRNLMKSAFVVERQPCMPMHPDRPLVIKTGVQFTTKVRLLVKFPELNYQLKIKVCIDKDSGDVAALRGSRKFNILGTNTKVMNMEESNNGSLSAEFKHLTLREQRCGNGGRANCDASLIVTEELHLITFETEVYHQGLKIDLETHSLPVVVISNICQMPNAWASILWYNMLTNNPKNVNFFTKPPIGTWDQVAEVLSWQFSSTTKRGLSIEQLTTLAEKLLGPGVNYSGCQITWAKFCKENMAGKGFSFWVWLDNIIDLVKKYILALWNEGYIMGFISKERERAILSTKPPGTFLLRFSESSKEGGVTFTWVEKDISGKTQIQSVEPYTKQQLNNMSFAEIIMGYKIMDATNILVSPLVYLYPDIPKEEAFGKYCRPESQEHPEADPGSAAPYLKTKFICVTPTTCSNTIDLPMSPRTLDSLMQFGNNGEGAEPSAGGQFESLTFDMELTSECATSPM

A short description of assay [1]: time course of proliferation (FIG. 7B). How it is done:
(§1) FIG. 7 depicts the decrease in STAT3 observed at 24 hours treatment with I-103 (A), the time-dependent inhibition of proliferation with I-103 (B), the increase in activated Caspase 3 at 48 hours that leads to cell death with I-103 treatment (C), and increase in subG1 cells observed with I-103 treatment (D).

In assay [2] the test system is SU-DHL-1 cells. The assay can be described thus: Caspase 3/7-Glo activity assay. To be noted: read-out: Apoptosis, Caspase3/7-Glo IC50 (μM) at 48 hr; SU-DHL-1, 48 hr. How it is done: Determination of apoptosis was determined using a Caspase 3/7-Glo assay.
• 1—Prepare the Caspase-Glo® 3/7 Reagent (Promega cat #G8090) • Equilibrate the Caspase-Glo® 3/7 Buffer and lyophilized Caspase-Glo® 3/7 Substrate to room temperature before use. • Transfer the contents of the Caspase-Glo® 3/7 Buffer bottle into the amber bottle containing Caspase-Glo® 3/7 Substrate. • Mix by swirling or inverting the contents until the substrate is thoroughly dissolved to form the Caspase-Glo® 3/7 Reagent • Aliquot and store at −20 • 2—If thawing the reagent, allow it to equilibrate to room temperature. Mix well. • 3—Remove white-walled 384-well plate containing treated cells from the incubator and allow plates to equilibrate to room temperature. • 4—Add Caspase-Glo® 3/7 Reagent to each well of the plate at 1:1 ratio with media. Because of the sensitivity of this assay, be careful not to touch pipet tips to the wells containing samples to avoid cross-contamination. Cover the plate with a plate sealer or lid. • 5—Gently mix contents of wells using a plate shaker at 300-500 rpm for 30 seconds. Incubate at room temperature for 30-60 minutes. Note: Temperature fluctuations will affect the luminescence reading. • 6—Measure the luminescence of each sample in a plate-reading luminometer as directed by the luminometer manufacturer.

Assay [3] has as its system SU-DHL-1 cells. Description: Wash-out study in SU-DHL-1 cells. To be noted: 1 uM compound for 24 and 48 hr, then wash-out; FIGS. 10 and 18. How it is done: I-103 and I-174 were tested in the wash-out protocol.
• Seed cell suspension in T75 flasks and treat with 0.1% DMSO and 1 uM compound for 24 and 48 hr. Day 0 • Collect cell suspension from the flasks in conical tubes after 24 and 48 hr, spin down at 1,000 rpm for 5 min. • Remove supernatant. Wash with PBS, spin down at 1,000 rpm for 5 min, repeat PBS wash one more time. • Seed the cells at 2,000 cells per well in 384-well plates for growth inhibition measurement via CellTiterGlo (CTG) and 10,000 cells per well in 96-well plates for STAT3 levels via MSD. • Measure T0 for CTG and collect pellets to measure levels of STAT3 by MSD Day 1-4 • Measure CTG every day for 4 days post wash-out. • Collect pellets and measure levels of STAT3 by MSD every day for 4 days post wash-out. Growth inhibition was normalized to T0 and graphed as % control.

Assay [4] concerns the target STAT3 (Homo sapiens, UniProt P40763). Description: STAT3 level after 24 hours treatment (FIG. 7A). How it is done:
as §1

Assay [5] in a line: subG1 cells (FIG. 7D). How it is done: as §1
In assay [6] the test system is activated Caspase 3. The assay can be described thus: activated Caspase 3 at 48 hours (FIG. 7C). The settings on record: leads to cell death. How it is done: as §1
Assay [7] concerns ALK+ALCL cell lines. The assay can be described thus: growth inhibition in multiple ALK+ALCL cell lines. To be noted: dose response curves, FIG. 16; tested form: diammonium. The text has this: FIG. 16 depicts dose response curves showing I-174 and I-94 mediated growth inhibition in multiple ALK+ALCL cell lines.
Assay [8] relates to STAT3-mediated gene expression (SOCS3, PD-L1). The assay can be described thus: RT-qPCR of STAT3, SOCS3 and PDL-1 mRNA levels in SU-DHL-1 cells. To be noted: FIG. 15, tested form: diammonium. How it is done: FIG. 5. Includes graphical images and tables showing the results of RT-qPCR in SU-DHL-1 cells at 24 hours (A) with mRNA levels (% control) over I-103 concentration (nM)(x-axis) for STAT3, SOCS3, and PDL-1 genes and CellTiterGlo (CTG) cell viability at 4 days (B) with growth inhibition (% control) over I-103 concentration (nM)(x-axis) for MOLM-16 and SU-DHL-1 cell lines. Also shown are the results of MSD degradation DC50 (nM) in MOLM-16 and SU-DHL-1 cell lines at 24 hours.
FIG. 15 depicts dose response curves and IC50 results showing I-174 and I-94 repression of STAT3-mediated gene expression in of SOCS3 and PD-L1 in SU-DHL-1 cells.
(In general: Quantitative PCR measures a nucleic acid by following its amplification.)

In assay [9] the test system is KI-JK cells. Description: CellTiter-Glo cell viability, KI-JK. On the technique in general: In ATP-based viability assays light output follows the ATP content of the culture.

Structures were worked out from names or drawings and are uncertain.

For the compound `Cn1c(=O)n(C2CCC(=O)NC2=O)c2ccc(CCCCCCC(=O)N3CC[C@H]4CC[C@@H](C(=O)N[C@@H](CCC(N)=O)C(=O)NC(c5ccccc5)c5ccccc5)N4C(=O)[C@@H](NC(=O)c4cc5cc(C(=O)P(=O)(O)O)ccc5[nH]4)C3)cc21` (some centres unmarked), the proliferation entry in assay [1] was “time-dependent inhibition of proliferation”. Moreover, the IC50 in assay [2] is 0.38 µM. Besides, the “viability of SU-DHL-1 cells after wash-out” value in assay [3] is “profound effects on the viability of SU-DHL-1 cells”. In addition, the STAT3 level result in assay [4] was “decrease in STAT3”. For the same compound, the subG1 cells entry in assay [5] was “increase in subG1 cells”. Further, in assay [6], the “activated Caspase 3” value is listed as “increase in activated Caspase 3”.

For the compound `Cc1ncsc1-c1ccc([C@H](C)NC(=O)[C@@H]2C[C@@H](O)CN2C(=O)[C@@H](NC(=O)CCCCc2ccc(CO[C@H](C)[C@H](CCC(N)=O)NC(=O)[C@@H]3Cc4cccc5c4N3C(=O)[C@@H](NC(=O)c3cc4cc(C(=O)P(=O)(O)O)ccc4[nH]3)CC5)cc2)C(C)(C)C)cc1` [Compound I-227], the “growth inhibition in multiple ALK+ALCL cell lines” value in assay [7] is “mediated growth inhibition”. Also, the “STAT3-mediated gene expression of SOCS3 and PD-L1” value in assay [8] is reported as “repression of STAT3-mediated gene expression”. In assay [9] (ALCL (ALK+), Day 4, tested form: diammonium), the “CTG (% Max inh), Day 4” value is “(110) %”. Moreover, the cell proliferation result in assay [9] (FIG. 16, tested form: diammonium) is given as “inhibit”. The IC50 in assay [9] (read-out: CTG, IC50 μM, Day 4, ALCL (ALK+), Day 4, tested form: diammonium) was found to be 0.102 µM.
